Binding data for one substance are collected here from paper PMC6316740.

The chains behind the UniProt entries cited, without tags or fusion partners.
UniProt P63027: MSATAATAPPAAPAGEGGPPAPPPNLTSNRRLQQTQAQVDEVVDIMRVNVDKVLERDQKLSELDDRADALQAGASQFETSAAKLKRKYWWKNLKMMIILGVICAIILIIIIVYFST
UniProt P08247: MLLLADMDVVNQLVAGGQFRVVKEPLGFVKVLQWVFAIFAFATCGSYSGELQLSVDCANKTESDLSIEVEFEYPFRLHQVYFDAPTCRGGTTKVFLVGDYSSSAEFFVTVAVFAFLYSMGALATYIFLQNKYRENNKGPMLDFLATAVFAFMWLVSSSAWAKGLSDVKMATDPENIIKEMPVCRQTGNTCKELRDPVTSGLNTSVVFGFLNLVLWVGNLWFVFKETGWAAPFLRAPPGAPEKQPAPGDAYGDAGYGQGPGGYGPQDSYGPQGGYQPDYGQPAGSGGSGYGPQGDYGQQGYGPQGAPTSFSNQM

For this test, the target named is synaptobrevin-2/VAMP-2 (human (endogenous in SH-SY5Y)) (UniProt P63027). The experiment in a line: co-IP; endogenous proteins of SH-SY5Y cells; samples incubated with rabbit anti-VAMP-2, mouse anti-α-Syn or mouse anti-synaptophysin antibody at 4 °C overnight, collected on immunomagnetic beads in binding buffer (50 mM Tris, 150 mM NaCl, 0.2% Triton-100; pH 7.5), blotted; normal, LV-α-Syn shRNA and LV-negative shRNA cells, 0 or 100 μM Mn for 24 h.

Results are given in words; binding and its absence hold for the method and conditions named. Binding seen in cells or lysates may run through a third protein. Some binding calls cover weakened binding; strength is not graded here.

For the substance “synaptophysin (from UniProt P08247 1-313)”, the binding result is “binds”.
